Data taken from the supplement of paper PMC3334620.
Over roughly 33,000 sequences, “E-score (-0.5 to 0.5)” has its median near -0.015; the highest 2% begin near 0.3. Some of the results follow.

Target: T1, Abf1 (UniProt P14164)
T1 sequence: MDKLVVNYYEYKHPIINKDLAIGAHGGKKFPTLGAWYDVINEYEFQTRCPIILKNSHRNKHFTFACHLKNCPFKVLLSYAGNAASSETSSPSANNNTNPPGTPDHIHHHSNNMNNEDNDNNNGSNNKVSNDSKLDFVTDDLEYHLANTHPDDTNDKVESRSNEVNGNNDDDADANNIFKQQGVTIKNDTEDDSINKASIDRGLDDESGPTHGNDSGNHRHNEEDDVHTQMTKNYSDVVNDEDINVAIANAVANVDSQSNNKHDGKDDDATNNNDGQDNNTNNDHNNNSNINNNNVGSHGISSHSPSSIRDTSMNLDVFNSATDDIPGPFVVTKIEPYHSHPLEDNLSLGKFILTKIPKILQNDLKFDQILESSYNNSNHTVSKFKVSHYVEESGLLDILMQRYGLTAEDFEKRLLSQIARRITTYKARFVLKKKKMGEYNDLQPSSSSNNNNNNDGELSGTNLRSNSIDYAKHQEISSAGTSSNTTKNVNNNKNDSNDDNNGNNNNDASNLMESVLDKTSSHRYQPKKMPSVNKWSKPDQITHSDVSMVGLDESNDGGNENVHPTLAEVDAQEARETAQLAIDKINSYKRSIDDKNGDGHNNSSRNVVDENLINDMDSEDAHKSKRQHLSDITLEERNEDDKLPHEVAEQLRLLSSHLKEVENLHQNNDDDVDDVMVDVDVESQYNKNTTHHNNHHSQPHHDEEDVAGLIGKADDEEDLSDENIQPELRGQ
Test: PBM E-score (8-mer binding enrichment) (E-score (-0.5 to 0.5)); higher = stronger / more preferred TF binding
Conditions: protein concentration: 200 nM; construct: GST-full length
Outline: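 For each ungapped eight-base word taken together with its reverse complement, the Universal PBM Analysis Suite assigned an E-score. Binding data came from GST-tagged yeast transcription factors, applied at about 100-200 nM, on universal all-10-mer Agilent arrays made double-stranded by primer extension. Fluorescent anti-GST marked bound protein, and scans were normalised with masliner.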

Sequence | PBM E-score
AGTCCGCA | -0.33
CGTCCGTC | -0.0636
ACAAAAGA | 0.202
CTTCGTCC | 0.0852
GAGCGGTA | -0.1
CACGATGC | 0.208
AACCATCT | -0.0763
AGTTTAGG | -0.146
TAAAGCGA | 0.121
ATGGGTAC | 0.067
GCTGATAA | 0.0596
GGACTACA | -0.177
AATGCAGA | -0.00439
CCCCTCGC | -0.201
CGTTCGAA | 0.311
CATAGATC | 0.0272
CGGAAAAC | 0.00296
AAACTACG | 0.0358
AACTAAAA | -0.00124
CACTCCCA | -0.0696
TGGTGTAA | -0.037
ATTCGTCG | 0.31

Sequence | PBM E-score
ATTACAAT | 0.0631
CGCATGAG | -0.162
AACGTATA | 0.1
CGTGGCCA | -0.0396
AATGCGCC | -0.0187
CCATTTTA | 0.105
GGAAGGCA | -0.268
ATAGTAGC | 0.145
ATTTCTCC | -0.0555
AACTTTCT | 0.0402
CGGATCGC | 0.0254
GGACGGCA | 0.163
GTGTGACA | 0.116
ATCGAGTG | 0.0393
ACTTGCCG | 0.0368
GGAGCACC | -0.0207
AAGCTGAA | -0.105
ATCAGGAC | 0.103
AGGTTTCG | -0.199
CTGACAAC | -0.0598
AGTATGGC | -0.0832
AAGGTGCC | -0.0626

Sequence | PBM E-score
ATCGCCGC | -0.00435
GTCCGCGA | 0.196
CTGCAGCC | -0.22
CGACCACG | 0.231
GAGAATGA | 0.161
ACGGCTTC | -0.0541
GGCCTCCA | -0.108
GTTGATAA | 0.199
ATACAAAT | 0.0807
CGATGAAG | 0.0345
AAGCATCG | 0.266
ACCGATCT | -0.344
ATCTTCCG | 0.162
ACTGTTGG | -0.142
ATTTCTTA | 0.0563
GCCCCCGA | -0.346
AGACGAAT | 0.288
TAATAGCA | -0.122
ATTTAGTG | 0.166
CCTTAACA | 0.00924
AGGGGATA | -0.071
CCGCAATC | 0.00423

In another format: entries from further up.
Sequence,PBM E-score
GTCCGCGA,0.196
CGATGAAG,0.0345
AGACGAAT,0.288
CCGCAATC,0.00423

The listing continues.

Sequence | PBM E-score
AGAGTCTC | -0.145
CGTAAACG | 0.00931
CTTGGGAC | 0.163
ATAGCACA | -0.057
ACGGTTAC | 0.11
AGGTGTAT | -0.208
ATGATATA | 0.403
CTACTCCC | -0.12
CGGGTTGC | -0.142
GACCGCCC | -0.159
ACCGTTTC | 0.0554
CTACCGTA | 0.117
AAGTCTGT | 0.00842
CCGACAGC | -0.246
AAATAAAC | 0.085
ATACGAAG | 0.328
CAAATATG | -0.0682
CTAACCAG | -0.1
AAGACGAA | 0.223
ATCTCTCC | 0.0195
TAATGCAA | -0.00797
CCCTTTAG | -0.269

Sequence | PBM E-score
CTACTAGA | -0.0227
CCGTAGGA | 0.262
CAGCGCTG | -0.0266
AAACAGGA | 0.0421
GCCAACGC | 0.0526
GATCAATC | 0.0842
ACGACATA | 0.295
AGCAGCGA | 0.167
AACGTTGC | -0.0203
CTTAATCA | 0.127
GTAAGGGA | 0.115
AAACGGGT | 0.0669
GCAAACCC | -0.203
CGCGAGTC | -0.0453
CGAGTGTA | 0.153
ACACGGAT | -0.0137
CCTATAGG | -0.201
CACCGCCC | -0.0835
CTTGCTGA | -0.0447
ACAATACT | 0.202
AAGCTTCA | -0.118
